# Measurements published in PubChem BioAssay AID493014 (National Center for Advancing Translational Sciences (NCATS), 2011).
# The list shows a part of the results. Further columns of the screen follow, without active or inactive calls. The list favours compounds with an active or inconclusive main result. The note in brackets gives the kind of curve behind each potency; many fits are weak.
# Experiment: qHTS Assay to Find Inhibitors of Chronic Active B-Cell Receptor Signaling
# Details: ABC-DLBCL IkBa-CBG/CBR reporter, luminescence ratio (green luciferase fused to IkBa over red control in TMD8 lymphoma cells), 4 h
# Procedure, shortened: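 TMD8 human ABC-DLBCL cells with doxycycline-inducible IκBα–green luciferase fusion and unfused red luciferase, in 0.5% FBS medium; compounds up to 46 uM, 4 h at 37C. Green/red luminescence ratio, filter-overlap corrected, fitted to concentration-response curves.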
# [1] = measured here: CBR red luminescence, cell number
# [2] = measured here: IkBa-CBG green luminescence
Structure (SMILES),AC50 [1],AC50 [2]
CCOc1ccccc1NC(=O)CN(C)S(=O)(=O)c1ccc(OC)c(C)c1,"2.31 µM [rising, single point]",–
Cc1ccccc1Oc1nc2ccccc2n2cnnc12,"5.01 µM [rising, full curve, poor fit]",–
O=c1c2cc([N+](=O)[O-])ccc2nc(CN2CCN(c3ccccn3)CC2)n1-c1ccccc1F,"0.562 µM [rising, full curve, poor fit]",–
O=C(NCc1ccco1)c1cccc(N2CCCC2=O)c1,"11.6 µM [falling, partial curve, poor fit]",–
O=C(O)c1ccccc1NC(=S)NC(=O)c1sc2ccccc2c1Cl,"35.5 µM [falling, partial curve, poor fit]",–
COc1ccc(-c2nn(-c3ccccc3)cc2/C=N/NC(=O)c2cccc(S(=O)(=O)Nc3ccccc3Cl)c2)cc1,"9.2 µM [rising, partial curve]",–
CCc1ccccc1NC(=O)Nc1ccc(F)cc1,"17.8 µM [falling, single point]",–
O=C(CCC(=O)c1ccc[nH]1)c1ccc(Cl)cc1,"10 µM [falling, partial curve]",–
COc1ccc(/C=N/c2oc(C)c(C)c2C#N)c(OC)c1,"17.8 µM [rising, partial curve, poor fit]",–
COc1ccc(CC(=O)Nc2cccc(-c3nnc(-c4cccc(C)c4)o3)c2)cc1OC,"0.517 µM [falling, full curve, poor fit]",–
CCC(C)(NC(=O)Cc1c[nH]c2ccccc12)C(=O)NC1CCCCC1 (stereo unspecified),"20.6 µM [rising, partial curve, poor fit]",–
Cc1nn(C)c(C)c1NC(=O)CCSc1nc(-c2ccco2)cc(C(F)(F)F)n1,"0.517 µM [falling, full curve, poor fit]",–
O=C(Nc1cccc(F)c1)c1c(O)c2ccccc2[nH]c1=O,"0.112 µM [rising, full curve, poor fit]",–
COc1cc(OC)cc(C(=O)N[C@H](C(=O)NCCc2c[nH]c3ccccc23)C(C)C)c1,"5.62 µM [rising, single point]",–
O=C(NNc1nc2ccccc2s1)c1ccc(F)cc1,"14.6 µM [falling, partial curve]",–
O=C(Nc1ccccc1)N1CCN(c2ccc(F)cc2)CC1,"18.4 µM [falling, partial curve]",–
O=C1CCCc2c1[nH]c1ccc(CN3CCCCC3)cc21,–,"12.6 µM [falling, partial curve, poor fit]"
CCSc1nnc(NC(=O)c2ccc(Br)s2)s1,"0.731 µM [falling, full curve]",–
CC(C)OC(=O)c1ccc(N2CCN(c3ccccc3F)CC2)nc1,"3.98 µM [rising, partial curve, poor fit]",–
O=C1c2cccc(OCc3ccc(F)cc3)c2CCN1Cc1ccccc1,"5.8 µM [falling, partial curve]",–
COc1cc(/C=C/C(=O)OCC(=O)N2CCCc3ccccc32)ccc1O,"25.9 µM [rising, single point]","23.1 µM [falling, single point]"
CCOc1ccc(NC(=O)c2ccccc2NS(=O)(=O)c2ccc(F)cc2)c([N+](=O)[O-])c1,"20.6 µM [falling, partial curve, poor fit]",–

# Single entries from the entries so far:
# COc1ccc(-c2nn(-c3ccccc3)cc2/C=N/NC(=O)c2cccc(S(=O)(=O)Nc3ccccc3Cl)c2)cc1 | AC50 [1]: 9.2 µM [rising, partial curve]
# Cc1ccccc1Oc1nc2ccccc2n2cnnc12 | AC50 [1]: 5.01 µM [rising, full curve, poor fit]
# CCSc1nnc(NC(=O)c2ccc(Br)s2)s1 | AC50 [1]: 0.731 µM [falling, full curve]
# CC(C)OC(=O)c1ccc(N2CCN(c3ccccc3F)CC2)nc1 | AC50 [1]: 3.98 µM [rising, partial curve, poor fit]

# Further structures follow:

Structure (SMILES),AC50 [1],AC50 [2]
O=C(Nc1ccccc1)Nc1ccc2ccccc2c1,"7.08 µM [falling, partial curve]",–
O=C(N/N=C/c1cc2c(cc1Br)OCO2)c1cccnc1,"11.2 µM [falling, partial curve]",–
N#C/C(=C(/O)COc1ccc(Cl)cc1)c1nc2ccccc2s1,"7.08 µM [falling, partial curve, poor fit]",–
CN1/C(=C\C(=O)COC(=O)c2ccc(O)cc2)C(C)(C)c2ccccc21,"35.5 µM [falling, partial curve, poor fit]",–
CC(=O)c1cccc(NC(=O)C2CCCN2S(=O)(=O)c2cccc3nsnc23)c1 (stereo unspecified),"8.91 µM [rising, partial curve]",–
CCNC(=O)Cn1cnc2c1c(=O)n(C)c(=O)n2C,"29.1 µM [rising, single point]",–
CCc1nnc(NS(=O)(=O)c2ccc(NC(=S)NC(=O)c3ccccc3)cc2)s1,"23.1 µM [falling, partial curve, poor fit]","23.1 µM [rising, partial curve, poor fit]"
CC(C)(C)c1ccc(C(=O)Nc2ccc(C=C(C#N)C#N)cc2)cc1,"10.3 µM [rising, partial curve, poor fit]",–
Cc1ccc(C)c(S(=O)(=O)N2CCN(C(=O)CCC(=O)NCc3ccc(Cl)cc3)CC2)c1,"0.231 µM [rising, full curve, poor fit]",–
O=C(O)c1ccccc1NS(=O)(=O)c1ccc(NN=Cc2ccccc2F)c([N+](=O)[O-])c1,"25.9 µM [rising, single point]",–
O=C(CCSc1ccccc1)NCCSCc1ccco1,"23.1 µM [falling, partial curve, poor fit]",–
COc1ccccc1OCc1cc(C(=O)N(C)CCC2CCCCO2)no1 (stereo unspecified),"10 µM [rising, partial curve]",–
CC(C)c1ccc(NC2CCCN(C(=O)CCN3CCCO3)C2)cc1 (stereo unspecified),"3.55 µM [rising, full curve, poor fit]",–
Cc1ccc(CN2CCN(CCCn3cccn3)CC2CCO)cc1 (stereo unspecified),"25.1 µM [rising, single point]",–
COc1ccccc1NC(=S)NCCc1c[nH]c2ccccc12,"35.5 µM [falling, single point]",–
COc1ccc(-c2n[nH]c(C(F)(F)F)c2-c2cc3ccccc3o2)c(O)c1,"22.4 µM [falling, single point]",–
COc1ccc(C(=O)NNC(=S)NC(=O)/C=C/c2cccs2)cc1,"35.5 µM [falling, single point]",–
CCOc1ccc(C2C([N+](=O)[O-])=C(C)N(C)C(=O)N2C)cc1OC (stereo unspecified),"35.5 µM [falling, single point]",–
CCOC(=O)c1nn(-c2ccc(C)cc2)cc1O,"32.6 µM [falling, single point]",–
Cc1ccc(S(=O)(=O)Nc2ccc(C(OC(=O)c3ccccc3[N+](=O)[O-])(C(F)(F)F)C(F)(F)F)cc2)cc1,"16.4 µM [falling, partial curve, poor fit]",–
CCc1sc(C(=O)NC2CCN(C)CC2)cc1Br,"6.51 µM [falling, single point]",–
C=CCc1ccc(OCc2ccc(C(=O)O)o2)c(OC)c1,"2 µM [falling, full curve]",–

Structure (SMILES),AC50 [1],AC50 [2]
CCc1c(C)sc(NC(=O)c2cc(C3CC3)on2)c1C#N,"8.91 µM [rising, partial curve, poor fit]",–
COc1cccc(C(=O)NC(=S)Nn2cnnc2)c1OC,"1.58 µM [rising, partial curve, poor fit]",–
COC(=O)C1CC(=O)N(c2ccc(OCc3ccccc3Cl)cc2)C1 (stereo unspecified),"10 µM [falling, single point]",–
CN1CCN(c2ccccc2NC(=O)COc2ccc(Br)cc2)CC1,"20.6 µM [falling, single point]",–
COc1ccc(C(CCN)c2ccc3c(c2)OCO3)cc1 (stereo unspecified),"3.55 µM [falling, partial curve, poor fit]",–
CCOc1ccc(OCCSc2nnnn2C2CCCCC2)cc1,"0.116 µM [falling, full curve, poor fit]",–
Cc1cc(CNC(=O)CC2C(=O)NCCN2Cc2ccccc2C(F)(F)F)on1 (stereo unspecified),"35.5 µM [rising, single point]",–
COc1cc(C(=O)NNC(=S)NC(=O)/C=C/c2ccccc2)cc(OC)c1OC,"3.16 µM [rising, full curve]",–
COc1cccc(C(=O)Nc2cccc3ccccc23)c1OC,"22.4 µM [rising, partial curve, poor fit]",–
CC(=O)Nc1cccc(C(=O)N2CCN(Cc3ccccc3)CC2)c1,"6.51 µM [rising, single point]",–
CCOC(=O)c1c(NC(=O)COC(=O)c2cc(OC)c(OC)cc2[N+](=O)[O-])sc(C)c1C,"3.66 µM [rising, single point]",–
CCOC(=O)C1CCN(Cc2nnc(-c3ccccc3C)o2)CC1,"35.5 µM [rising, single point]",–
Cc1ccc(/C=N/NC(=O)Cc2cccn2C)s1,"6.51 µM [rising, single point]",–
Cc1ccc(Cl)cc1Nc1nc(-c2sc(NC(=O)c3ccco3)nc2C)cs1,"5.62 µM [falling, full curve]",–
CCc1ccc(/C=C2\SC(=S)N(CCC(=O)Nc3cc(C)on3)C2=O)cc1,"1.41 µM [falling, full curve, poor fit]",–
O=C(NC(=S)Nc1ccc2oc(=O)ccc2c1)c1ccccc1F,"35.5 µM [falling, single point]",–
O=C(Nc1ccccc1F)Oc1cccc(OC(=O)Nc2ccccc2F)c1,"14.1 µM [falling, partial curve]",–
CCNC(=O)C1CC(=O)OC12CCCCC2 (stereo unspecified),"35.5 µM [falling, partial curve, poor fit]",–
Oc1cccc(-c2nc3ccc4ccccc4c3c3c2CCC3)c1,"29.1 µM [falling, single point]",–
Cc1sc(NC(=O)c2ccco2)c(C(Nc2ccccn2)c2ccccc2)c1C (stereo unspecified),"16.4 µM [falling, single point]",–
